# Measurements reported in PubChem BioAssay AID1259278 (Sanger Institute, 2017).
# Screen: 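Kinase knock-downs that raise colorectal cancer cell killing by anti-cancer drugs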 (follow-up of hits)
# System: human HT55 colorectal cancer cells
# Reagents: single siRNA against human genes
# Conditions: anchor drugs added to knock-down cells: cetuximab 5 µg/ml, trametinib 10 nM or BYL719 1 µM, against DMSO vehicle; chosen to hurt viability little alone
# Detection: 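Viability averaged against the control control pool 2 (non-targeting), plus a synergy score of knock-down with drug for each anchor drug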
# Scale: synergy score with BYL719 and synergy score with cetuximab and synergy score with trametinib: higher = stronger combined killing with knock-down
# Active means: 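a synergy score over 0.10 with BYL719, cetuximab or trametinib makes the knock-down a hit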
# Calls: active = synergy with an anchor drug; inactive = no synergy
# Shown is a random part of 160 reagents tested. 54 of them (34%) count as active. 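Each call rests on one siRNA duplex in one cell line; gene-level support needs several duplexes and lines.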 A number with no mark means an inactive call. Reagents against one gene are numbered here. Further read-outs or replicates are left out here. No sequences are given here. The record does not give: the amount of reagent, the time to read-out.
gene,reagent,synergy score with BYL719,synergy score with cetuximab,synergy score with trametinib
CSNK2A2 (casein kinase 2 alpha 2),1,-0.0702,0.0393,0.0329
CSNK2A2 (casein kinase 2 alpha 2),2,-0.201,0.0174,0.0489
CSNK2A2 (casein kinase 2 alpha 2),3,-0.13 (active),0.161,0.107
CSNK2A2 (casein kinase 2 alpha 2),4,-0.072 (active),0.108,0.0271
MAPKAPK2 (MAPK activated protein kinase 2),1,-0.00468,-0.0012,-0.0829
MAPKAPK2 (MAPK activated protein kinase 2),2,-0.23,-0.169,-0.242
MAPKAPK2 (MAPK activated protein kinase 2),3,0.0191,0.0862,-0.0108
MAPKAPK2 (MAPK activated protein kinase 2),4,0.0772 (active),0.108,-0.00201
CDK6 (cyclin dependent kinase 6),1,0.127 (active),0.0742,0.159
CDK6 (cyclin dependent kinase 6),2,-0.036,-0.00834,0.025
CDK6 (cyclin dependent kinase 6),3,-0.157 (active),-0.118,0.112
CDK6 (cyclin dependent kinase 6),4,-0.293 (active),0.261,0.195
CDKN2D (cyclin dependent kinase inhibitor 2D),1,-0.195,0.00539,-0.00642
CDKN2D (cyclin dependent kinase inhibitor 2D),2,0.0186 (active),-0.0783,0.104
CDKN2D (cyclin dependent kinase inhibitor 2D),3,-0.331,-0.116,0.0508
CDKN2D (cyclin dependent kinase inhibitor 2D),4,-0.0312,-0.0664,-0.0523
BMPR2 (bone morphogenetic protein receptor type 2),1,-0.176,-0.0646,-0.0344
BMPR2 (bone morphogenetic protein receptor type 2),2,-0.0795,0.00634,-0.0433
BMPR2 (bone morphogenetic protein receptor type 2),3,-0.139,0.00136,-0.0923
BMPR2 (bone morphogenetic protein receptor type 2),4,-0.146,-0.0579,-0.255
SF3B1 (splicing factor 3b subunit 1),1,-0.0081,0.0746,0.0367
SF3B1 (splicing factor 3b subunit 1),2,-0.00522,0.0273,0.00392
SF3B1 (splicing factor 3b subunit 1),3,0.105 (active),0.0347,0.053
SF3B1 (splicing factor 3b subunit 1),4,-0.0114,-0.0317,-0.0737
NR2F2 (nuclear receptor subfamily 2 group F member 2),1,0.0824 (active),0.0281,0.207
NR2F2 (nuclear receptor subfamily 2 group F member 2),2,-0.104 (active),0.0409,0.129
NR2F2 (nuclear receptor subfamily 2 group F member 2),3,-0.184,0.0617,0.00774
NR2F2 (nuclear receptor subfamily 2 group F member 2),4,-0.0308 (active),-0.0851,0.122
SYNCRIP (synaptotagmin binding cytoplasmic RNA interacting protein),1,-0.138 (active),0.125,0.0685
SYNCRIP (synaptotagmin binding cytoplasmic RNA interacting protein),2,-0.331,-0.0895,-0.00842
SYNCRIP (synaptotagmin binding cytoplasmic RNA interacting protein),3,-0.0127,-0.0123,0.0428
SYNCRIP (synaptotagmin binding cytoplasmic RNA interacting protein),4,-0.196,0.0933,-0.0486
"PRAG1 (PEAK1 related, kinase-activating pseudokinase 1)",1,-0.196,-0.0315,-0.115
"PRAG1 (PEAK1 related, kinase-activating pseudokinase 1)",2,-0.137,-0.0825,0.0168
"PRAG1 (PEAK1 related, kinase-activating pseudokinase 1)",3,-0.0883 (active),0.166,-0.261
"PRAG1 (PEAK1 related, kinase-activating pseudokinase 1)",4,-0.149 (active),0.015,0.115
MARK3 (microtubule affinity regulating kinase 3),1,-0.214,-0.00885,0.0935
MARK3 (microtubule affinity regulating kinase 3),2,-0.00395,0.0716,0.0878
MARK3 (microtubule affinity regulating kinase 3),3,0.0801 (active),0.165,0.18
MARK3 (microtubule affinity regulating kinase 3),4,0.0707 (active),0.16,0.24
GRK5 (G protein-coupled receptor kinase 5),1,-0.186,-0.187,-0.106
GRK5 (G protein-coupled receptor kinase 5),2,-0.271,0.0243,0.00792
GRK5 (G protein-coupled receptor kinase 5),3,-0.11,-0.0311,-0.0512
GRK5 (G protein-coupled receptor kinase 5),4,-0.17 (active),0.128,-0.00136
CAMK2N1 (calcium/calmodulin dependent protein kinase II inhibitor 1),1,-0.0699,-0.0543,-0.196
CAMK2N1 (calcium/calmodulin dependent protein kinase II inhibitor 1),2,-0.173,0.0729,0.0105
CAMK2N1 (calcium/calmodulin dependent protein kinase II inhibitor 1),3,-0.057,0.00972,-0.0416
CAMK2N1 (calcium/calmodulin dependent protein kinase II inhibitor 1),4,-0.207,-0.0434,-0.148
HUNK (hormonally up-regulated Neu-associated kinase),1,0.00177 (active),0.119,-0.0123
HUNK (hormonally up-regulated Neu-associated kinase),2,-0.123 (active),0.133,0.0432
HUNK (hormonally up-regulated Neu-associated kinase),3,-0.0102,0.0639,0.0324
HUNK (hormonally up-regulated Neu-associated kinase),4,0.0983 (active),0.188,0.154
"GUCY2D (guanylate cyclase 2D, retinal)",1,0.0329 (active),0.233,0.262
"GUCY2D (guanylate cyclase 2D, retinal)",2,-0.0539 (active),0.182,0.278
"GUCY2D (guanylate cyclase 2D, retinal)",3,0.00761,-0.0191,0.097
"GUCY2D (guanylate cyclase 2D, retinal)",4,-0.213,0.0615,0.0432
"PIM1 (Pim-1 proto-oncogene, serine/threonine kinase)",1,-0.133,0.0441,0.0299
"PIM1 (Pim-1 proto-oncogene, serine/threonine kinase)",2,0.133 (active),0.124,0.0125
"PIM1 (Pim-1 proto-oncogene, serine/threonine kinase)",3,0.00829,0.0522,-0.0322
"PIM1 (Pim-1 proto-oncogene, serine/threonine kinase)",4,0.108 (active),-0.02,0.0711
NLK (nemo like kinase),1,-0.0595 (active),-0.13,0.103
NLK (nemo like kinase),2,-0.182,0.0208,0.0671
NLK (nemo like kinase),3,-0.331,0.0418,0.0601
NLK (nemo like kinase),4,-0.169,-0.062,-0.088
KCNH8 (potassium voltage-gated channel subfamily H member 8),1,-0.0311,0.0435,0.035
KCNH8 (potassium voltage-gated channel subfamily H member 8),2,0.0877 (active),0.182,0.135
KCNH8 (potassium voltage-gated channel subfamily H member 8),3,0.045 (active),0.0192,0.187
KCNH8 (potassium voltage-gated channel subfamily H member 8),4,-0.0131,0,0.0498
"PFKFB3 (6-phosphofructo-2-kinase/fructose-2,6-biphosphatase 3)",1,-0.0479,0.0735,-0.0947
"PFKFB3 (6-phosphofructo-2-kinase/fructose-2,6-biphosphatase 3)",2,-0.00962,0.0141,-0.0104
"PFKFB3 (6-phosphofructo-2-kinase/fructose-2,6-biphosphatase 3)",3,-0.251,0.0314,-0.144
"PFKFB3 (6-phosphofructo-2-kinase/fructose-2,6-biphosphatase 3)",4,-0.0657,0.00886,-0.0812
IRAK1 (interleukin 1 receptor associated kinase 1),1,-0.0615,0.0128,-0.0814
IRAK1 (interleukin 1 receptor associated kinase 1),2,-0.0845,-0.0666,-0.0186
IRAK1 (interleukin 1 receptor associated kinase 1),3,0.0984 (active),0.114,0.0583
IRAK1 (interleukin 1 receptor associated kinase 1),4,-0.0526,-0.02,-0.092

A run of entries from the list above, as a working copy:
gene,reagent,synergy score with BYL719,synergy score with cetuximab,synergy score with trametinib
"GUCY2D (guanylate cyclase 2D, retinal)",2,-0.0539 (active),0.182,0.278
"GUCY2D (guanylate cyclase 2D, retinal)",3,0.00761,-0.0191,0.097
"GUCY2D (guanylate cyclase 2D, retinal)",4,-0.213,0.0615,0.0432
"PIM1 (Pim-1 proto-oncogene, serine/threonine kinase)",1,-0.133,0.0441,0.0299
"PIM1 (Pim-1 proto-oncogene, serine/threonine kinase)",2,0.133 (active),0.124,0.0125
